# At least one compound was matched to its structure with a doubt left.
# Tested on: spindle cell sarcoma with SNX8: BRAF fusion
# Assay: Case: pediatric subject with recurrent spindle cell sarcoma harboring SNX8:BRAF fusion, treated with Raf/MEK inhibitors and chemotherapy
# Type: in vivo, human
# Protocol: Methods: A subject, presented with a 1-week history of fever, cough and respiratory distress. […] The subject was treated with 3 cycles of ifosfamide, doxorubicin, and dexrazoxane. […] The subject was consequently started on the MEK inhibitor trametinib.
smiles,measurement,setting,value
"CC(=O)Nc1cccc(-n2c(=O)n(C3CC3)c(=O)c3c(Nc4ccc(I)cc4F)n(C)c(=O)c(C)c32)c1 [trametinib, reference compound]",CT tumor response at the primary site,CT approximately 2 months later,no evidence of measurable tumor
same,CT tumor status,"CT approximately 6 months later, 4.0×3.7×4.6 cm left posterior mediastinal mass",new recurrence
same,residual tumor size,"following the first month of treatment, after subtotal resection",decrease in size of residual tumor

# — US20240390373A1, “RAF KINASE INHIBITORS FOR TREATING TUMORS HARBORING GENE FUSIONS” (Day One Biopharmaceuticals, Inc., priority 2021, published 2024)
